Measured values as given in the supplement of paper PMC6143611.
Structures can show the parent of a compound that is named as a salt. ± gives the uncertainty stated by the source. This is one part of the list. Part of the spread comes from offsets between plates or batches.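 Larvae carried a heat-shock-induced fluorescent stripe in rod outer segments, set at 6 dpf; the shedding distance runs from this stripe to the outer segment tip, measured in confocal stacks, about three fish per compound. The controls got 0.2% DMSO vehicle, and the paper flagged compounds with at least a 20% change against the same-week control and p < 0.001 (Dunnett test on mixed-effects models).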

Legend:
[1] = system: Danio rerio larva rod photoreceptor outer segment; assay: rod outer segment growth distance Dg, difference from same-week DMSO control mean; higher = more outer segment growth; conditions: 20 µM; treatment time: 4 days (6-10 dpf)
[2] = system: Danio rerio larva rod photoreceptor outer segment; assay: rod outer segment shedding distance Ds, difference from same-week DMSO control mean; higher = less outer segment shedding; conditions: 20 µM; treatment time: 4 days (6-10 dpf)

| SMILES | rod outer segment growth distance Dg [1] [um] | rod outer segment shedding distance Ds [2] [um] |
| --- | --- | --- |
| CNC(=O)Nc1ccc(-c2nc(N3CC4CCC(C3)O4)c3cnn(C4CCC5(CC4)OCCO5)c3n2)cc1 | -0.53 ± 0.17 | -0.34 ± 0.13 |
| O=C(/C=C/C=C/c1ccc2c(c1)OCO2)N1CCCCC1 [Piperine] | -2.98 ± 1.1 | -3.8 ± 1.1 |
| Cc1cc(-c2ccc(CC(=O)Nc3ccc(-c4cccnc4)cc3)cc2)ccn1 | -1.14 ± 0.22 | -0.15 ± 0.15 |
| COc1ccc([C@@H]2Sc3ccccc3N(CCN(C)C)C(=O)[C@@H]2OC(C)=O)cc1 [Diltiazem HCl] | -0.76 ± 0.18 | -0.89 ± 0.29 |
| CC(=O)OCC(=O)[C@@]12OC(C)(C)O[C@@H]1C[C@H]1[C@@H]3C[C@H](F)C4=CC(=O)C=C[C@]4(C)[C@@]3(F)[C@@H](O)C[C@@]12C [Fluocinonide] | -1.7 ± 0.23 | -0.41 ± 0.14 |
| O=c1c(O)c(-c2cc(O)c(O)c(O)c2)oc2cc(O)cc(O)c12 [Myricetin] | 0.3 ± 0.35 | -0.06 ± 0.35 |
| Cc1ncc([N+](=O)[O-])n1CCO [Metronidazole] | 0.41 ± 0.2 | 0.88 ± 0.26 |
| CC(C(=O)O)c1ccc2c(c1)Cc1cccnc1O2 (configuration not stated) [Pranoprofen] | 0.63 ± 0.22 | -1.53 ± 0.32 |
| Cc1nc(C(=O)NCC(=O)O)c(O)c2ccc(Oc3ccccc3)cc12 | -0.03 ± 0.24 | -0.74 ± 0.27 |
| O=C(NC1CCOCC1)c1ccc(-c2cc(-c3c[nH]nc3-c3ccccn3)ccn2)cc1 | -0.82 ± 0.15 | -0.18 ± 0.13 |
| Nc1ccc(S(N)(=O)=O)cc1 [Sulfanilamide] | -1.1 ± 0.18 | 0.11 ± 0.17 |

Arranged by SMILES length (low to high): some entries from above

| SMILES | rod outer segment growth distance Dg [1] [um] | rod outer segment shedding distance Ds [2] [um] |
| --- | --- | --- |
| Nc1ccc(S(N)(=O)=O)cc1 [Sulfanilamide] | -1.1 ± 0.18 | 0.11 ± 0.17 |
| Cc1nc(C(=O)NCC(=O)O)c(O)c2ccc(Oc3ccccc3)cc12 | -0.03 ± 0.24 | -0.74 ± 0.27 |
| CNC(=O)Nc1ccc(-c2nc(N3CC4CCC(C3)O4)c3cnn(C4CCC5(CC4)OCCO5)c3n2)cc1 | -0.53 ± 0.17 | -0.34 ± 0.13 |
